## Results of single-concentration screens

Protein sequences, listed by entry. Tags and fused reporters are not part of them. Residues count along the entry.
UniProt I6X8D2, whole entry: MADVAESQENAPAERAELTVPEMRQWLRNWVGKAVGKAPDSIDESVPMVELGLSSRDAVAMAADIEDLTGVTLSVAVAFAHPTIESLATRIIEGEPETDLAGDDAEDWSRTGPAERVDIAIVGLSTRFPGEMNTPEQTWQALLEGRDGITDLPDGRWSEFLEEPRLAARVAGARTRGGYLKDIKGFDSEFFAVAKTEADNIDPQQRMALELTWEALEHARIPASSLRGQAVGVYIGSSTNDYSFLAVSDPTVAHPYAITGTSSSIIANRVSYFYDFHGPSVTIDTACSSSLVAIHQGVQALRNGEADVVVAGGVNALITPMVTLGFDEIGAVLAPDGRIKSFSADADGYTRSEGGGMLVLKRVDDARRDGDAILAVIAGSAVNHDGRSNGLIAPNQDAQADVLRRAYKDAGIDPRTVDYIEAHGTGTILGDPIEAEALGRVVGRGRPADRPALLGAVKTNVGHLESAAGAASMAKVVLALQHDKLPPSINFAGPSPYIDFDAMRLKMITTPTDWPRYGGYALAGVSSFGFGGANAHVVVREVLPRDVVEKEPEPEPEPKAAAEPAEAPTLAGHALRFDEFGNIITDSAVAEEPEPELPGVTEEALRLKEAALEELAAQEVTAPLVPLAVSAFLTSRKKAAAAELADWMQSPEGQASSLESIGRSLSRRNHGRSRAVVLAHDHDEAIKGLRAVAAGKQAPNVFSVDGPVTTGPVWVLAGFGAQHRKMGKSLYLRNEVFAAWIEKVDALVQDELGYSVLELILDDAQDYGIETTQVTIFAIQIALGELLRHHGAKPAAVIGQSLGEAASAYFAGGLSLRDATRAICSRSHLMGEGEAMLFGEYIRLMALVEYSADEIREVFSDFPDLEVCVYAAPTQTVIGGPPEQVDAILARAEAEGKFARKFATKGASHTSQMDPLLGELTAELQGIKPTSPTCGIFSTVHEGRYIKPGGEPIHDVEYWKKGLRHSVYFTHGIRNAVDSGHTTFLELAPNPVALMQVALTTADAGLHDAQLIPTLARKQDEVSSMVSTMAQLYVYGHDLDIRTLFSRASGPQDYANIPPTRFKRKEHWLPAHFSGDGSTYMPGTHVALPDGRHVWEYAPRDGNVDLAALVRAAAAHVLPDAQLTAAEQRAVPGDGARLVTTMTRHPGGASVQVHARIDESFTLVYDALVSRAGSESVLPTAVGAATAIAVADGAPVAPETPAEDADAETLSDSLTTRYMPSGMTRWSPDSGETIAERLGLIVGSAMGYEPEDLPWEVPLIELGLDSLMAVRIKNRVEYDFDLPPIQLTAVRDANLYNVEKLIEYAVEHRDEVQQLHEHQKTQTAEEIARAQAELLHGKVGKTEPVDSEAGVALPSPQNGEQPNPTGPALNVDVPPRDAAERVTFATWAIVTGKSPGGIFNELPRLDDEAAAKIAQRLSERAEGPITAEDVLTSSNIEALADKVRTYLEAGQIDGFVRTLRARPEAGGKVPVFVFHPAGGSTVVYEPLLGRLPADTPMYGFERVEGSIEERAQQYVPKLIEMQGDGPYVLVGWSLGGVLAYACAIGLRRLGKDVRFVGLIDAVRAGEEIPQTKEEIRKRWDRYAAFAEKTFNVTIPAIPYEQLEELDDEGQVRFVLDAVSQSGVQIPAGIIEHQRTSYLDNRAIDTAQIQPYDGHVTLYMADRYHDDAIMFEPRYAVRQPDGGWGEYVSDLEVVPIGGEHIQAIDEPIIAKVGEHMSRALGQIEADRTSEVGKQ
UniProt A4I591, 1-473: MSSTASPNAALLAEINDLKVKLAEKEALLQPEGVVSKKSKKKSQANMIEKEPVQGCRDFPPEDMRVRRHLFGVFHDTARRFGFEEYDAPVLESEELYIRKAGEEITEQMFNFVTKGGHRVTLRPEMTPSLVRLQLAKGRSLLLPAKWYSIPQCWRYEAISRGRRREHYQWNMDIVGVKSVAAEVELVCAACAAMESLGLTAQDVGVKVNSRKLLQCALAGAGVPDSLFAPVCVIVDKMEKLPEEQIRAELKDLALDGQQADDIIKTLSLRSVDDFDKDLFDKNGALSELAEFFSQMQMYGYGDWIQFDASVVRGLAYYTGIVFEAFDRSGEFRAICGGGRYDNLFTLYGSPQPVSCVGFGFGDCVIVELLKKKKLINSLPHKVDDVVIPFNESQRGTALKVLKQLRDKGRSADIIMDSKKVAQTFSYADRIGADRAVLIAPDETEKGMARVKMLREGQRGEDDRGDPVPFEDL
UniProt P9WNZ1, whole entry: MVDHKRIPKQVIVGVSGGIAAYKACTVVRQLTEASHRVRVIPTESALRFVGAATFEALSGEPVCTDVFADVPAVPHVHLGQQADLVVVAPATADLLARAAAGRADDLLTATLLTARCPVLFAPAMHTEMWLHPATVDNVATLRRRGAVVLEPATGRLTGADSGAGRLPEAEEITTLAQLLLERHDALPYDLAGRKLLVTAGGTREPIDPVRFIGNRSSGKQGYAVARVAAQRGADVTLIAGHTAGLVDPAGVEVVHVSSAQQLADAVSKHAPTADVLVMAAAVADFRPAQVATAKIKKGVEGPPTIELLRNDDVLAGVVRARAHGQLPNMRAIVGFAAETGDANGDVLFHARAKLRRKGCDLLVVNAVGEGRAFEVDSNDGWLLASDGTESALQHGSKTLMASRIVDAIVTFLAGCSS

From ChEMBL document CHEMBL3988442, “University of Dundee, Small-Polar-MMV Screening Library” (2021).

Values are the deposited “Percent Effect”, in %.
The controls that fix the scale are not given in the record; negative values are as filed.
Compounds were drawn at random from those tested, without regard to their results.

Pks13 thioesterase: 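Polyketide synthase Pks13, Mycobacterium tuberculosis (UniProt I6X8D2). Enzyme assay of the thioesterase domain of polyketide synthase 13; the read-out is not stated. Tested at 30 µM. The record gives no direction; the compounds picked for IC50 retests had high values, so higher reads as stronger inhibition. Of about 67,000 compounds tested this way, about 300 (0.46%) reached 50% or more in at least one test.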
LiHisRS: 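Enzyme assay of histidyl-tRNA synthetase; the read-out is not stated. Target: Histidine-tRNA ligase, Leishmania infantum (UniProt A4I591). Tested at 30 µM. Higher reads as stronger inhibition (inferred: compounds with an IC50 in retests scored well above the rest). The assay is labelled LdHisRS but filed under L. infantum. Of about 69,000 compounds tested this way, about 410 (0.6%) reached 50% or more in at least one test.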
CoaBC: 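Enzyme assay of CoaBC with a phosphate dye (Biomol Green) read at 650 nm. Target: Coenzyme A biosynthesis protein CoaBC, Mycobacterium tuberculosis (UniProt P9WNZ1). Compounds at 30 µM. Higher reads as stronger inhibition, judged from the few compounds that gave an IC50. Most strong results did not repeat in a second test. Size under these conditions: about 67,000 compounds, about 40 of them at 50% or above in at least one test.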

- Cc1ccc(C(C)NC(=O)CSCC(N)=O)cc1 (centres unmarked) | Pks13 thioesterase: -28.43%; LiHisRS: 17.86%; CoaBC: -4.046%
- CN(C)CCOCC1CN(Cc2cccs2)Cc2ccnn2C1 (centres unmarked) | Pks13 thioesterase: 1.868%; LiHisRS: 10.91%; CoaBC: -13.87%
- CNC(=O)C1CN(C(=O)c2cccnc2)CCN(S(C)(=O)=O)C1 (centres unmarked) | Pks13 thioesterase: 24.15%; LiHisRS: 12.68%; CoaBC: -2.219%
- CNc1cccc(C2CCCN(C(=O)c3coc(C)n3)C2)n1 (centres unmarked) | Pks13 thioesterase: -3.287%; LiHisRS: 9.375%; CoaBC: 1.225%
- CC1N(CC2CC2)C(=O)COC12CCN(C(=O)c1cnccn1)CC2 (centres unmarked) | Pks13 thioesterase: 6.156%; LiHisRS: 8.547%
- Cn1ccc(CS(=O)(=O)Cc2cccc(F)c2)cc1=O | Pks13 thioesterase: -23.69%; LiHisRS: 18.75%; CoaBC: 10.71%
- CCc1ncc(S(C)(=O)=O)c(C2CCCNC2)n1 (centres unmarked) | Pks13 thioesterase: -10.51%; LiHisRS: 15.29%; CoaBC: -0.2538%
- CCCc1cc(N(CCOC)CC(F)F)n2ncnc2n1 | Pks13 thioesterase: -15.65%; LiHisRS: -6.667%; CoaBC: -1.46%
- O=C(O)c1ccc(OC2CCOCC2)cc1 | Pks13 thioesterase: -26%; LiHisRS: 14.29%; CoaBC: -4.615%
- CCc1c(C)sc2ncnc(N3CC[C@@H](N4CCOCC4)[C@H](O)C3)c12 | Pks13 thioesterase: -53.66%; LiHisRS: 28.57%
- Cc1noc(Cl)c1CCC(=O)N1CCN(c2ccccc2)CC1 | Pks13 thioesterase: -22.25%; LiHisRS: 4.386%; CoaBC: 0.3911%
- N#CCCN(c1ccc(F)cc1)S(=O)(=O)CC1CCCCO1 (centres unmarked) | Pks13 thioesterase: 2.623%; LiHisRS: 6.667%; CoaBC: 6.38%
- CC1(C(=O)NC2CCCC2)CN(c2cnccn2)CCO1 (centres unmarked) | Pks13 thioesterase: 11.35%; LiHisRS: 11.72%; CoaBC: 0.3708%
- CC(=O)NCCNC(=O)N(C)Cc1ccc2c(c1)OCCO2 | Pks13 thioesterase: -4.582%; LiHisRS: 9.231%; CoaBC: 8.094%
- FC(F)(F)Cn1ccnc1CN1CCCC1c1noc(C2CC2)n1 (centres unmarked) | LiHisRS: -6.757%; CoaBC: -0.3911%
- CN1CCN(S(C)(=O)=O)Cc2cccnc21 | Pks13 thioesterase: -11.14%; LiHisRS: 11.88%; CoaBC: 1.856%
- Cc1ncccc1OC1(C(=O)NCCc2ccccn2)CCNCC1 | Pks13 thioesterase: 9.392%; LiHisRS: 14.75%; CoaBC: -1.288%
- CCOC(=O)N1CCN(C(=O)c2cc(-c3ccccc3F)on2)CC1 | Pks13 thioesterase: -4.964%; LiHisRS: 18.87%; CoaBC: 4%
- CCc1nc(CN2CCCN(C(=O)C3CCOC3)CC2)cs1 (centres unmarked) | Pks13 thioesterase: 5.348%; LiHisRS: 5.66%; CoaBC: -1.895%
- COC(=O)CNC(=O)Cn1ccc2cccc(OC)c21 | Pks13 thioesterase: -29.21%; LiHisRS: -10.53%; CoaBC: -1.01%
- CCN1CCN(c2nc(O)cc(Cc3ccccc3F)n2)CC1 | Pks13 thioesterase: 3.921%; LiHisRS: 1.418%; CoaBC: 7.459%
- CN(CCC1CCCCO1)c1nncc(-c2ccccc2)n1 (centres unmarked) | Pks13 thioesterase: -12.88%; LiHisRS: 8.571%; CoaBC: 4.104%
- CCn1cc(C(=O)Nc2ccccc2C(=O)OC)cn1 | Pks13 thioesterase: -8.176%; LiHisRS: 12.64%; CoaBC: 2.013%
- CCC(C)(CC(=O)OC)NC(=O)c1ccc2[nH]ccc2c1 (centres unmarked) | Pks13 thioesterase: -9.629%; LiHisRS: 4.396%; CoaBC: 0.3659%
- COc1ccc2c(c1)OCC(CNC(=O)c1ccc3[nH]nnc3c1)C2 (centres unmarked) | Pks13 thioesterase: -73.86%; LiHisRS: 18.18%; CoaBC: 1.277%
- O=C(O)C(c1ccc2c(c1)OCO2)N1CCC(C(=O)N2CCCC2)CC1 (centres unmarked) | Pks13 thioesterase: -11.22%; LiHisRS: 14.56%; CoaBC: -4.911%
- COC(=O)C1(C)CCN(C(=O)NCCc2c(C)[nH]c3ccccc23)C1 (centres unmarked) | Pks13 thioesterase: -1.885%; LiHisRS: -6.667%; CoaBC: 5.372%
- CNC(=O)CN1CC[C@H]2CN(C(=O)c3ccoc3)C[C@H]2C1 | Pks13 thioesterase: -3.773%; LiHisRS: 1.389%; CoaBC: -0.4938%
- CNC(=O)c1ccc(C2CN(C(=O)c3cncs3)CCO2)nc1 (centres unmarked) | Pks13 thioesterase: -29.4%; LiHisRS: 25%; CoaBC: 3.611%
- Cc1cccc(C(C(=O)N2CC(c3ccccn3)C2)N(C)C)c1 (centres unmarked) | Pks13 thioesterase: -48.93%; LiHisRS: 13.33%; CoaBC: 2.893%
- Cc1ccc(CN(CCCn2ccnc2)Cc2ccccc2O)s1 | Pks13 thioesterase: -11.89%; LiHisRS: 24.21%; CoaBC: 12.17%
- CCOc1cc(CNCc2cnc(C)cn2)c(Cl)cc1OC(C)C | Pks13 thioesterase: -5.626%; LiHisRS: 9.524%; CoaBC: -5.217%
- Cc1noc([C@]23COC[C@H]2CN(C(=O)COC2CCCC2)C3)n1 | Pks13 thioesterase: -5.307%; LiHisRS: 0.9009%; CoaBC: 0.7426%

Once more, the final 4:

* Cc1cccc(C(C(=O)N2CC(c3ccccn3)C2)N(C)C)c1 (centres unmarked) | Pks13 thioesterase: -48.93%; LiHisRS: 13.33%; CoaBC: 2.893%
* Cc1ccc(CN(CCCn2ccnc2)Cc2ccccc2O)s1 | Pks13 thioesterase: -11.89%; LiHisRS: 24.21%; CoaBC: 12.17%
* CCOc1cc(CNCc2cnc(C)cn2)c(Cl)cc1OC(C)C | Pks13 thioesterase: -5.626%; LiHisRS: 9.524%; CoaBC: -5.217%
* Cc1noc([C@]23COC[C@H]2CN(C(=O)COC2CCCC2)C3)n1 | Pks13 thioesterase: -5.307%; LiHisRS: 0.9009%; CoaBC: 0.7426%